Measurements from the supplement of paper PMC11098740.
± gives the standard deviation of the averaged measurements. Some of the results follow. Many values rest on one well or one pass, so single values are uncertain.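 The assay uses a mixed pool of 41 HAP1 clones in which 61 cancer-associated proteins bear intron-inserted fluorescent tags, and clones are distinguished by image pattern. Results are compared against DMSO-treated control wells, and the BRD4 degrader dBET6 is the positive control.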

Target: BRD4 (intron 10 mScarlet tag, HAP1) (UniProt O60885)
Experiment: BRD4 median nuclear fluorescence intensity change vs DMSO (log2 fold change); higher = more BRD4 protein
Conditions: 6 h

Which “BRD4 median nuclear fluorescence intensity change (log2)” value does the source give for `CCCCC1C(=O)N(c2ccccc2)N(c2ccc(O)cc2)C1=O` (configuration not stated) [oxyphenbutazone] (10 µM) here?
Its value is 0.0566.

How did the “BRD4 median nuclear fluorescence intensity change (log2)” value turn out when `O.O.O.O.O=C([O-])CC(O)(CC(=O)[O-])C(=O)[O-].[Li+].[Li+].[Li+]` [lithium citrate] (10 µM) was run?
Its value is 0.0359.

For `Cc1[nH]nc2c1C(c1cc(CO)cc(-c3ccccc3)c1)(C(C)C)C(C#N)=C(N)O2` (configuration not stated) [shin1] (10 µM), which “BRD4 median nuclear fluorescence intensity change (log2)” value is on record?
Its value is -0.0689.

With `CC1=Nc2ccc(Cl)cc2S(=O)(=O)N1` [diazoxide] (10 µM) as the compound, how does the “BRD4 median nuclear fluorescence intensity change (log2)” value read?
Its value is -0.0197.

With `O=C1[C@H](CC[C@H](O)c2ccc(F)cc2)[C@@H](c2ccc(O)cc2)N1c1ccc(F)cc1` [ezetimibe] (10.00060281 µM) as the compound, how does the “BRD4 median nuclear fluorescence intensity change (log2)” value read?
Its value is 0.105.

For `C[C@](N)(Cc1ccc(O)cc1)C(=O)O` [metyrosine] (10 µM), which “BRD4 median nuclear fluorescence intensity change (log2)” value is on record?
Its value is 0.0811.

`CN1C(=O)CC(c2ccccc2)C1=O` (configuration not stated) [phensuximide] (10 µM) was tested. Which “BRD4 median nuclear fluorescence intensity change (log2)” value did it give?
The value was 0.0743.

How did the “BRD4 median nuclear fluorescence intensity change (log2)” value turn out when `Nc1ncn([C@@H]2O[C@H](CO)[C@@H](O)[C@H]2O)c(=O)n1` [azacitidine] (10 µM) was run?
The value was -0.201.

With `O=C(CCCCCCC(=O)Nc1ccccc1)NO` [vorinostat] (3.889 µM) as the compound, how does the “BRD4 median nuclear fluorescence intensity change (log2)” value read?
Its value is -0.065.

With `CC(C)(Oc1ccc(Cl)cc1)C(=O)O` [clofibric acid] (10 µM) as the compound, how does the “BRD4 median nuclear fluorescence intensity change (log2)” value read?
Its value is 0.0686.

`Nc1nc(Cl)nc2c1ncn2[C@@H]1O[C@H](CO)[C@@H](O)[C@@H]1F` [clofarabine] (0.1 µM) was tested. Which “BRD4 median nuclear fluorescence intensity change (log2)” value did it give?
The value was 0.0294 ± 0.012.

Which “BRD4 median nuclear fluorescence intensity change (log2)” value does the source give for `OC(CCCN1CCCCC1)(c1ccccc1)c1ccccc1` [diphenidol] (9.99988 µM) here?
Its value is 0.0706.
